Measurements published in paper PMC7962367.

Sequences of proteins named here, by UniProt entry; tags and fusion partners are left off. A change or cut given only in a name is not applied to a line headed by its entry.
UniProt Q8R5H1: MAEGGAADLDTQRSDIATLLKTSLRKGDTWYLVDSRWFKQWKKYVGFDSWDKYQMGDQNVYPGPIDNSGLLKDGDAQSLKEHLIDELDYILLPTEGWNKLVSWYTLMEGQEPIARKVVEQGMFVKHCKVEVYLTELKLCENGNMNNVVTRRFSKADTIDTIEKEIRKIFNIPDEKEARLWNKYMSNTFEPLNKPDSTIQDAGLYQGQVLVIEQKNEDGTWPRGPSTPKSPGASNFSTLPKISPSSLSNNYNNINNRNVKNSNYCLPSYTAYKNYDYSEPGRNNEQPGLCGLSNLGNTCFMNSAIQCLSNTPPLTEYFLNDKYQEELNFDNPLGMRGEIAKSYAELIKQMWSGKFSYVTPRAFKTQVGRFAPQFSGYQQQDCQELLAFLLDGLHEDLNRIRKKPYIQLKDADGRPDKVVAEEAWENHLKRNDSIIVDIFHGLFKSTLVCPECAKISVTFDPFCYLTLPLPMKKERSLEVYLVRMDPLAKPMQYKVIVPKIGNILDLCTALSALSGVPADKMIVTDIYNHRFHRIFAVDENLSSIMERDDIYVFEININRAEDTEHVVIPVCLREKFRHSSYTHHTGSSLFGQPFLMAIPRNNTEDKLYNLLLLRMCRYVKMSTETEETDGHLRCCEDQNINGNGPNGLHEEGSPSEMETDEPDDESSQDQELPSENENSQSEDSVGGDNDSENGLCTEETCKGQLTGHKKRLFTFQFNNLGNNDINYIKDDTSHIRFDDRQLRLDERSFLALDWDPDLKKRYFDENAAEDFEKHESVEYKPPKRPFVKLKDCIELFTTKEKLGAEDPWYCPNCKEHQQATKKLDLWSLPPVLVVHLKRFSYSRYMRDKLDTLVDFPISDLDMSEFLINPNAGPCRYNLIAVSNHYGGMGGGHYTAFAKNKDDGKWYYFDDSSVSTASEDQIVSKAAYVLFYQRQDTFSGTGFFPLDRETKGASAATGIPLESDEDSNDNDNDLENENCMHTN
UniProt P63085: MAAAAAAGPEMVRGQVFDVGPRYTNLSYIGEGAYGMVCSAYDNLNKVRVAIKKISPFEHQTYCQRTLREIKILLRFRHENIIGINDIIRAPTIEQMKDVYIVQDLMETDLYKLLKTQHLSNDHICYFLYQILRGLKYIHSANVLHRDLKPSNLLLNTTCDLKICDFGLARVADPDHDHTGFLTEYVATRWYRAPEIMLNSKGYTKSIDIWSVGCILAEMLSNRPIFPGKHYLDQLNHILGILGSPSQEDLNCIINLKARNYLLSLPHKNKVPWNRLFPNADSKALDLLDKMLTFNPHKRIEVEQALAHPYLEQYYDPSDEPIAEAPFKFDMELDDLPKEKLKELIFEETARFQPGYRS

Biological target: Flag-tagged USP15 (mouse (from the prefix m in mUSP15)) (UniProt Q8R5H1)
Test: co-IP; 293T cells co-transfected with Flag-USP15 and HA-ERK2; lysates in RIPA buffer immunoprecipitated with anti-HA or anti-Flag antibodies and Protein A/G PLUS-Agarose; blots with anti-Flag or anti-HA

binding: binds
Substance: HA-tagged ERK2 (from UniProt P63085 1-358) (enzyme)

No constants are given. Whether binding was seen depends on the method and setting. In cells and extracts the contact can be indirect. Binding can be weak; no strength is given.
